Measurements as given in patent US7645864B2, “Erythromycin derivative having novel crystal structures and processes for their production” (Chugai Seiyaku Kabushiki Kaisha, priority 2001, dated 2010).
At least one structure is not confirmed: it was looked up by name or label, or the drawing left a doubt.

Assay: Average particle size by particle size distribution analyzer
Assay type: physicochemical
Conditions: D-form crystal
Excerpt: The content of residual solvent may be determined in a known manner, for example, by gas chromatography. The details on gas chromatography can be found in the Japanese Pharmacopoeia, 13th Edition, published by Hirokawa Publishing Co. (1996) pp. B83-B94, the Japanese Pharmacopoeia, 14th Edition, published by Hirokawa Publishing Co. (2001) pp. B98-B114 and elsewhere. In general, gas chromatography will cause a measurement error falling within around ±1%. The compound of the present invention can also be determined for its average particle size in a known manner or using various devices that are commercially available, such as a dry particle size distribution analyzer. In general, such a particle size distribution analyzer will cause a measurement error falling within around ±5%.
In these examples and comparison examples, X-ray diffractometry was performed using a powder X-ray diffractometer RINT-1100 (Rigaku), the content of residual solvent was determined using a gas chromatograph GC-17A (Shimadzu Corp.), and the average particle size was determined using a particle size distribution analyzer RPS-95 (Seishin Enterprise Co., Ltd.).

Row | Particle size (average particle size) [μm] | Structure (SMILES)
1 | 197 | CC[C@H]1OC(=O)[C@H](C)[C@@H](O[C@H]2C[C@@](C)(OC)[C@@H](O)[C@H](C)O2)[C@H](C)[C@@H](O[C@@H]2O[C@H](C)C[C@H](N(C)C(C)C)[C@H]2O)[C@]2(C)CC(C)=C(O2)[C@H](C)C(=O)[C@]1(C)OC [Example 5]
2 | 141 | CC[C@H]1OC(=O)[C@H](C)[C@@H](O[C@H]2C[C@@](C)(OC)[C@@H](O)[C@H](C)O2)[C@H](C)[C@@H](O[C@@H]2O[C@H](C)C[C@H](N(C)C(C)C)[C@H]2O)[C@]2(C)CC(C)=C(O2)[C@H](C)C(=O)[C@]1(C)OC [Example 4]
